Values of other authors as cited in patent publication US20060111342A1, “Insecticidal tricyclic derivatives” (priority 2002, published 2006).
At least one compound was matched to its structure with a doubt left.

Tested on: tobacco hornworm
Settings: in vivo; cited from earlier work

## CN1CCC(=C2c3ccccc3C=Cc3ccccc32)CC1 [cyproheptadine]
  anti-feeding activity against tobacco hornworm: anti-feeding activity
